Measured values as given in patent US20240360223A1.
These are yes or no findings as the source states them, for the method shown. Some entries that bind do so weakly or less than the wild type.

Chains of the proteins cited; added tags and fusions are not shown. Lines headed by an entry give the natural chain unless they say otherwise; changes in a name come on top.
UniProt Q96RJ3: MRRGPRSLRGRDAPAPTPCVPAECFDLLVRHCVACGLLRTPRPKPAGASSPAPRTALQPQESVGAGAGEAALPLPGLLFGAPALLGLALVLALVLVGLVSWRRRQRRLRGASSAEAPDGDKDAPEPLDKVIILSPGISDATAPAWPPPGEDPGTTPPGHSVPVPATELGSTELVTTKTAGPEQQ

How the values were obtained:
[1] = target: hBAFF-R-hFc-His fusion protein (human) (UniProt Q96RJ3); experiment: flow cytometry, scFv on yeast, off-rate challenge
[2] = target: hBAFF-R-hFc-His fusion protein (human) (UniProt Q96RJ3); experiment: yeast display flow cytometry: ianalumab-based scFv on yeast, biotinylated hBAFFR-Fc read as Binding-PE against Expression FITC; left panel, before the arrow to t = 120' (no time label on this sheet)

B1: ianalumab-based scFv benchmark control (scFv, V domains shown)
VH: QVQLQQSGPGLVKPSQTLSLTCAISGDSVSSNSAAWGWIRQSPGRGLEWLGRIYYRSKWYNSYAVSVKSRITINPDTSKNQFSLQLNSVTPEDTAVYYCARYQWVPKIGVFDSWGQGTLVTVSS
VL: DIVLTQSPATLSLSPGERATLSCRASQFILPEYLSWYQQKPGQAPRLLIYGSSSRATGVPARFSGSGSGTDFTLTISSLEPEDFAVYYCQQFYSSPLTFGQGTKVEIK
**Q.** Which results are given for B1?
**A.** binding [1]: binds; binding [2]: binds
